Measurements published in PubChem BioAssay AID1347076 (National Center for Advancing Translational Sciences (NCATS), 2019).
The campaign covered roughly 400,000 compounds. About 13,000 (3.2%) were called active. The shares of active, inactive and inconclusive entries below differ from those in the screen. The call rests on the fitted dose curve; in most records, active means well fitted cell-killing curve with a large enough effect; inconclusive means small, poorly fitted or top-dose-only effect, or effect the other way; inactive means flat fitted curve, though single readings scatter. A potency beside an inconclusive call is a rough fit, not a confirmed value.
On the % scale 0 is the no-effect control and ±100 the full control effect; potency means the concentration at half of the fitted maximal effect.

Experiment: qHTS assay for MDR1-selective chemotherapeutics: Primary screen using the drug-selected MDR subline cells KB-V1; further: nearly all actives have a fitted effect of over 60% in size
Conditions: KB-V1 MDR cells viability, CellTiter-Glo, 72 h; activity change, negative = cytotoxicity: at 46.1 µM (top of the series)
In short: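 Cells of the MDR subline KB-V1 are plated, dosed with compound at multiple concentrations, and incubated 72 h at 37 degrees C; CellTiter-Glo is then added and luminescence read after 10 min.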
With `Cc1ccc2c(c1)c(N=O)c(O)n2Cc1ccc(Cl)cc1` the Potency was inconclusive: 29.1 µM [rising, single point]. In the case of `COc1ccc(NC(=O)c2cccc3c2C(=O)N(C2CCCCC2)C3)cc1`, the “activity change, negative = cytotoxicity” value is reported as inactive: -1.32%. In the case of `COc1ccc(OC)c(Nc2c3ccccc3nc3ccccc23)c1`, the Potency is reported as active: 20.6 µM. In the case of `Cc1cc(C)c2c(c1)NC(c1cc3c(cc1Br)OCO3)C1CC=CC21` (stereo not drawn), the Potency is reported as inconclusive: 11.6 µM [cytotoxic, partial curve]. In the case of `O=C(c1ccc(S(=O)(=O)Cc2ccccc2F)c([N+](=O)[O-])c1)N1CCCCCC1`, the Potency is reported as inconclusive: 29.1 µM [cytotoxic, single point]. For `CCOC(=O)Cc1csc(NC(=S)NC(=O)c2cc(OC)c(OC)c(OC)c2)n1`, the Potency was inconclusive: 18.4 µM [cytotoxic, single point]. With `COc1ccc(OC)c(S(=O)(=O)Nc2ccccc2SC)c1` the Potency was inconclusive: 11.6 µM [cytotoxic, partial curve]. In the case of `C=CCN(CC=C)S(=O)(=O)c1ccc(NC(=S)NC(=O)Cc2ccc(OC)cc2)cc1`, the Potency is reported as active: 20.6 µM. In the case of `CCOc1cccc2c1OC1(CCCCC1)N1N=C(c3cccnc3)CC21` (stereo not drawn), the Potency is reported as inconclusive: 20.6 µM [cytotoxic, single point]. In the case of `COc1ccc(C2CC(c3cccs3)=NN2C(=O)COC(=O)c2cncc(Br)c2)cc1OC` (stereo not drawn), the Potency is reported as inconclusive: 16.4 µM [cytotoxic, partial curve]. In the case of `CCOC(=O)C1=C(C)N=C2SC(C(=O)OC)=CC(=O)N2C1c1cc(OC)c(OC)c(OC)c1` (stereo not drawn), the Potency is reported as inconclusive: 29.1 µM [rising, single point]. With `CCN(c1ccccc1)S(=O)(=O)c1ccc(C(=O)NCC(=O)Nc2ccc(F)c(F)c2F)cc1` the Potency was inconclusive: 29.1 µM [cytotoxic, single point]. For `O=C(Nc1ccncc1)c1cccc(S(=O)(=O)N2CCCC2)c1`, the Potency was inconclusive: 16.4 µM [cytotoxic, partial curve, poor fit]. With `O=C1OCCN1C(=O)[C@H]1[C@H](c2ccc(Cl)cc2)C(c2ccc(F)cc2)=NN1c1ccccc1` the Potency was inconclusive: 9.2 µM [cytotoxic, partial curve]. With `COC(=O)[C@@]12CCCCN1[C@H](c1ccc(-c3ccc(F)cc3)cc1)[C@H]1C(=O)N(C)C(=O)[C@H]12` the Potency was inconclusive: 18.4 µM [cytotoxic, single point]. With `COC(=O)c1ccccc1N(Cc1ccccc1)S(C)(=O)=O` the “activity change, negative = cytotoxicity” value was inactive: 9.59%. For `O=C(COc1ccccc1)NCC(c1ccco1)N1CCN(c2ccccc2F)CC1` (stereo not drawn), the Potency was active: 14.6 µM. In the case of `O=C(COc1ccc2oc3c(c2c1)CCCC3)Nc1ccccn1`, the “activity change, negative = cytotoxicity” value is reported as inactive: -4.62%. In the case of `CC(=O)c1c(C)[nH]c(C(=O)COC(=O)COc2ccccc2)c1C`, the “activity change, negative = cytotoxicity” value is reported as inactive: -13.5%. In the case of `CCCn1c(NCc2cc(OC)ccc2OC)nc2ccccc21`, the Potency is reported as active: 4.11 µM. For `CC(CSc1nc2ccccc2s1)Cn1c(N2CCCC2)nc2c1c(=O)[nH]c(=O)n2C` (stereo not drawn), the “activity change, negative = cytotoxicity” value was inactive: -14.2%. In the case of `O=C(NCCC(=O)N(Cc1ccco1)Cc1cccs1)c1ccc(Br)cc1`, the Potency is reported as inconclusive: 23.1 µM [cytotoxic, single point]. With `CCn1c(SCC#N)nc2ccccc2c1=O` the Potency was “inactive”. In the case of `COc1ccc(CC(=O)N/N=C(/C)CC(=O)N(C)c2ccccc2)cc1`, the Potency is reported as inconclusive: 20.6 µM [rising, partial curve, poor fit]. For `COc1ccccc1CNC(=O)COC(=O)c1cc([N+](=O)[O-])ccc1N1CCOCC1`, the Potency was inconclusive: 7.31 µM [cytotoxic, partial curve]. With `O=C(C(Sc1ccccc1)c1ccccc1)N1CCOCC1` (stereo not drawn) the Potency was active: 18.4 µM. For `Nc1ncnc(N2CCOCC2)c1N`, the “activity change, negative = cytotoxicity” value was inactive: -5.05%. For `Cc1ccc2c(c1)-c1c(ssc1=S)C(C)(C)N2C(=O)CSC1=NCCS1`, the Potency was active: 7.31 µM. In the case of `O=C(COc1ccc2oc3c(c2c1)CCCC3)Nc1cccc(Br)c1`, the “activity change, negative = cytotoxicity” value is reported as inactive: 0%. With `c1ccc(Oc2nc(-c3cccnc3)nc3ccccc23)cc1` the “activity change, negative = cytotoxicity” value was inactive: -28.3%. With `Cc1ccc2[nH]c(=O)c(CN(CC3CCCO3)C(=S)Nc3ccccc3)cc2c1` (stereo not drawn) the Potency was active: 4.11 µM. With `CCOC(=O)N1CCN(C(=O)c2ccc(Cl)c(S(=O)(=O)N3CCCC3)c2)CC1` the Potency was inconclusive: 23.1 µM [cytotoxic, partial curve, poor fit]. With `COc1ccc2c(C=O)cn(C)c2c1` the Potency was inconclusive: 20.6 µM [rising, single point]. In the case of `Cc1c(Cl)cccc1NC(=O)CNc1ccccc1F`, the Potency is reported as inconclusive: 18.4 µM [cytotoxic, partial curve]. In the case of `CCN1C(=O)[C@@H]2[C@@H](c3ccc(-c4ccc(OC)cc4)cc3)N3CCC[C@@]3(C(=O)OC)[C@@H]2C1=O`, the “activity change, negative = cytotoxicity” value is reported as inactive: 10.4%. In the case of `Cc1ccc(-n2nnc3c(=O)n(CC(=O)NCC4CCCO4)cnc32)cc1` (stereo not drawn), the “activity change, negative = cytotoxicity” value is reported as inactive: -13.6%. For `Cc1cc2c(cc1NS(=O)(=O)c1cccc(C#N)c1)n(C)c(=O)c(=O)n2C`, the “activity change, negative = cytotoxicity” value was inactive: 1.46%. In the case of `CCN(CC)C(=O)CSc1nc2ccc(NC(=O)CSc3nccn3C)cc2s1`, the Potency is reported as inconclusive: 23.1 µM [cytotoxic, single point]. For `COc1ccc(CNc2ccc3c(c2)ncn3-c2ccccc2OC)cc1`, the Potency was active: 16.4 µM. For `CCOC(=O)c1[nH]c2ccccc2c1NC(=S)Nc1cccc(C)c1`, the “activity change, negative = cytotoxicity” value was inactive: -12.9%. With `COc1ccc(N(CC(=O)N2CCN(c3ccccc3)CC2)S(=O)(=O)c2ccc(C)cc2)cc1` the Potency was inconclusive: 4.11 µM [cytotoxic, full curve, poor fit]. With `CC1=Nc2cc(C(=O)N3CCC(C)CC3)ccc2Sc2ccc(Cl)cc21` the Potency was inconclusive: 29.1 µM [rising, single point]. For `COc1ccc(-c2ccc(-c3noc(-c4ccccc4F)n3)c(OC)n2)cc1`, the Potency was inconclusive: 13 µM [cytotoxic, partial curve, poor fit]. With `Cn1cc(S(=O)(=O)N2CCCCCC2)cc1C(=O)Nc1ccc(Cl)c(C(F)(F)F)c1` the “activity change, negative = cytotoxicity” value was inactive: 0%. With `Cn1c(=O)c2c(nc(Br)n2Cc2ccccc2Cl)n(C)c1=O` the “activity change, negative = cytotoxicity” value was inactive: -0.508%. In the case of `O=C(O)CCCC(=O)Nc1ccccc1C(=O)N1CCCC1`, the Potency is reported as inconclusive: 25.9 µM [rising, single point]. In the case of `O=C1c2ccccc2CCc2ccccc21`, the “activity change, negative = cytotoxicity” value is reported as inactive: -8.59%. In the case of `COc1ccc(O)c(C(=O)c2cnn(S(=O)(=O)c3ccc(C)cc3)c2)c1`, the Potency is reported as inconclusive: 25.9 µM [rising, single point]. In the case of `CC(C)(C)c1cc(NS(=O)(=O)c2cccs2)no1`, the “activity change, negative = cytotoxicity” value is reported as inactive: 17%. In the case of `COc1ccc(C2=NN(C(=O)CSc3ncccn3)C(c3cccc(OC)c3OC)C2)cc1` (stereo not drawn), the Potency is reported as inconclusive: 29.1 µM [cytotoxic, single point]. In the case of `C=CC[C@@H](CC(=O)N[C@H](CO)Cc1ccccc1)C(=O)N[C@@H](COC(=O)[C@@H](CC=C)CC(=O)OC(C)(C)C)Cc1ccccc1`, the “activity change, negative = cytotoxicity” value is reported as inactive: -0.0001%. With `COC(=O)Cc1csc(Nc2ccccc2Cl)n1` the Potency was inconclusive: 18.4 µM [cytotoxic, single point]. In the case of `COc1ccc(C)cc1COC(=O)c1[nH]c(C)c(C(C)=O)c1C`, the “activity change, negative = cytotoxicity” value is reported as inactive: -8.76%. In the case of `CCc1ccc(NC(=O)C2CCCN2S(=O)(=O)c2ccc3c(c2)CCCC(=O)N3)cc1` (stereo not drawn), the “activity change, negative = cytotoxicity” value is reported as inactive: -3.68%. In the case of `COc1ccc(C)cc1NC(=O)CCS(=O)(=O)c1ccc2c(c1)oc(=O)n2C`, the activity change, negative = cytotoxicity is reported as inconclusive: 48.4%. With `COc1cccc(NS(=O)(=O)c2ccc(C)c(C(=O)N3CCCCC3)c2)c1` the “activity change, negative = cytotoxicity” value was inactive: 18.6%. In the case of `O=C(CSc1nnc(CNC(=O)c2cccs2)o1)Nc1cccc(Cl)c1`, the Potency is reported as inconclusive: 29.1 µM [rising, single point]. For `Cc1cc(C(=O)Nc2ccc(Cl)cc2)c(C)n1-c1ccccc1`, the Potency was inconclusive: 18.4 µM [cytotoxic, single point]. For `O=C(COc1ccc(-c2nnc(N3CCCCC3)c3ccccc23)cc1)N1CCCCC1`, the Potency was inconclusive: 16.4 µM [cytotoxic, partial curve, poor fit]. With `Cc1ccnc(SCCn2c(N(C)Cc3ccccc3)nc3c2c(=O)n(C)c(=O)n3C)n1` the “activity change, negative = cytotoxicity” value was inactive: -0.969%. With `CCOc1ccc(C(=O)NC(=S)Nc2ccccc2N2CCOCC2)cc1Br` the Potency was inconclusive: 16.4 µM [cytotoxic, partial curve]. For `Cc1nc(OCc2c(C)noc2C)c2ccccc2n1`, the “activity change, negative = cytotoxicity” value was inactive: 2.65%. For `Cc1cc(C)c2oc(-c3ccc(Cl)c(NC(=O)c4cccs4)c3)nc2c1`, the “activity change, negative = cytotoxicity” value was inactive: -22.7%. For `COc1cc(/C=C2/SC(=S)NC2=O)ccc1OS(=O)(=O)c1ccc(C)cc1`, the Potency was inconclusive: 16.4 µM [cytotoxic, single point]. For `CCc1nc2c(OCc3cccc(Cl)c3)cccn2c1N(C)C(=O)c1ccncc1`, the Potency was inconclusive: 3.66 µM [cytotoxic, full curve]. In the case of `COC(=O)c1sccc1NC(=O)c1cccc(Cl)c1`, the “activity change, negative = cytotoxicity” value is reported as inactive: -3.8%. For `O=C(NNC(=O)c1ccc([N+](=O)[O-])cc1)c1ccc(Br)cc1`, the Potency was inconclusive: 29.1 µM [rising, single point]. For `CC(C)Cc1ccc(CN2CCCC(NC(=O)c3cnc4ccccn4c3=O)C2)cc1` (stereo not drawn), the Potency was inconclusive: 23.1 µM [cytotoxic, single point]. For `Cc1ccc(OCC(=O)NC2CCCC2)c(C)c1`, the Potency was inconclusive: 20.6 µM [cytotoxic, single point]. With `CCc1cc(-c2n[nH]c(C)c2Oc2ccc(C(C)C)cc2)c(O)cc1O` the Potency was inconclusive: 29.1 µM [cytotoxic, single point]. With `C[C@@H]1C2CC(C/C2=N\NC(=O)c2ccncc2)C1(C)C` (stereo partly drawn) the “activity change, negative = cytotoxicity” value was inactive: -13.3%. In the case of `CSCCC(NC(=O)COc1ccccc1)C(=O)N(C)CC(=O)Nc1ccc(Cl)cc1` (stereo not drawn), the Potency is reported as active: 3.66 µM. For `Cc1ccc(C)c(N2CCN(C(=O)CCC(=O)N3CCOc4ccc(Cl)cc43)CC2)c1`, the Potency was inconclusive: 16.4 µM [cytotoxic, partial curve, poor fit].
